From PubChem BioAssay AID540256 (National Center for Advancing Translational Sciences (NCATS), 2011)
Screen size: about 300,000 compounds; about 3,700 (1.2%) were called active. The inconclusive results got no clear call from the source; some entries with a clear call stand among them for comparison. Calls follow the shape of the full dose curve; tested in HEK293 cells. Where the call is inconclusive, the potency comes from a doubtful curve fit.

Assay: qHTS for Inhibitors of binding or entry into cells for Lassa Virus; also: nearly all actives have a fitted effect of over 50% in size
Details: Lassa virus pseudotype entry inhibition, cell reporter; series mostly up to 37.9 µM
Potency is read from the fitted curve at half-maximal effect.

Compound	Potency
Cc1nc(-c2ccc(Cl)cc2)sc1C(=O)NN	inconclusive: 35.5 µM [inhibitor, single point]
O=C(CNC(=O)c1ccco1)Nc1ccc(Cl)cc1	inconclusive: 35.5 µM [activator, partial curve, poor fit]
CCN(CC)C(=O)Oc1ccc2cc(Br)ccc2c1	inactive
O=C(N/N=C/c1ccco1)c1cc(-c2ccc(Cl)cc2)n[nH]1	inactive
O=C(N/N=C/c1c(O)n(Cc2ccccc2)c(=O)[nH]c1=O)c1ccccc1O	inconclusive: 35.5 µM [inhibitor, single point]
CC(=O)N1CCN(CC(=O)Nc2ccccc2Sc2ccc(Cl)cc2)CC1	active: 5.01 µM
CCCCOC(=O)c1ccc(NC(=S)NC(=O)c2ccco2)cc1	active: 15.8 µM
COc1ccccc1N1CCN(C2CCCN(C(=O)c3cccc(-c4ccco4)c3)C2)CC1 (centres undefined)	inconclusive: 11.2 µM [inhibitor, partial curve, poor fit]
Cc1ccc(/C=N/NC(=O)CSc2nc3nc(C)cc(C)n3n2)cc1	inconclusive: 4.11 µM [inhibitor, full curve]
Cc1cccc(NS(=O)(=O)c2cc(C(=O)N3CCc4ccccc4C3)ccc2Cl)c1C	inconclusive: 6.51 µM [activator, single point]
CCc1cccc(-n2c(=O)c3cccnc3n2CC(=O)NCc2ccc(C)cc2)c1	inactive
O=C(CCCCCn1c(=O)c2sccc2n(CC(=O)Nc2cc(C(F)(F)F)ccc2Cl)c1=O)NCc1ccccc1Cl	inconclusive: 35.5 µM [inhibitor, single point]
CCCCCn1c(=O)c(C(=O)Nc2ccccc2S(N)(=O)=O)c(O)c2ccccc21	inconclusive: 11.2 µM [inhibitor, partial curve, poor fit]
O=c1nc(/C=C/c2cccn2-c2ccc([N+](=O)[O-])cc2)cc(C(F)(F)F)[nH]1	inactive
COc1cc(C(=O)N/N=C/c2sc(=O)n(-c3ccccc3)c2Cl)cc(OC)c1OC	inconclusive: 25.9 µM [inhibitor, partial curve, poor fit]
Cc1ccc(Cn2ccc(NC(=O)CCSc3nc(-c4ccco4)cc(C(F)(F)F)n3)n2)cc1	inconclusive: 17.8 µM [inhibitor, single point]
CC(C)(C)c1ccc(OCC(=O)NCC2(N3CCOCC3)CCCCC2)cc1	inconclusive: 35.5 µM [inhibitor, single point]
CC(C)c1cc(C(=O)NNC(=S)NC2CCCCC2)cs1	inconclusive: 12.6 µM [inhibitor, partial curve, poor fit]
Cc1ccc(N2NC3(CCN(C(N)=O)CC3)NC2=O)cc1	inconclusive: 35.5 µM [inhibitor, single point]
CCCCNc1nc(Cl)nc(Nc2ccc(C)cc2)n1	inactive
COc1ccc(-c2cn3nc(N4CCC(C(=O)Nc5cc(Cl)ccc5C)CC4)sc3n2)cc1	inactive
Cc1cc(Cl)ccc1N(CC(=O)NCCSCc1ccco1)S(C)(=O)=O	inactive

12 structures from above, sorted by molecular weight, largest number first:
Compound	Potency
O=C(CCCCCn1c(=O)c2sccc2n(CC(=O)Nc2cc(C(F)(F)F)ccc2Cl)c1=O)NCc1ccccc1Cl	inconclusive: 35.5 µM [inhibitor, single point]
COc1ccc(-c2cn3nc(N4CCC(C(=O)Nc5cc(Cl)ccc5C)CC4)sc3n2)cc1	inactive
Cc1cccc(NS(=O)(=O)c2cc(C(=O)N3CCc4ccccc4C3)ccc2Cl)c1C	inconclusive: 6.51 µM [activator, single point]
COc1cc(C(=O)N/N=C/c2sc(=O)n(-c3ccccc3)c2Cl)cc(OC)c1OC	inconclusive: 25.9 µM [inhibitor, partial curve, poor fit]
CCc1cccc(-n2c(=O)c3cccnc3n2CC(=O)NCc2ccc(C)cc2)c1	inactive
CC(C)(C)c1ccc(OCC(=O)NCC2(N3CCOCC3)CCCCC2)cc1	inconclusive: 35.5 µM [inhibitor, single point]
O=c1nc(/C=C/c2cccn2-c2ccc([N+](=O)[O-])cc2)cc(C(F)(F)F)[nH]1	inactive
Cc1ccc(/C=N/NC(=O)CSc2nc3nc(C)cc(C)n3n2)cc1	inconclusive: 4.11 µM [inhibitor, full curve]
CCN(CC)C(=O)Oc1ccc2cc(Br)ccc2c1	inactive
CCCCNc1nc(Cl)nc(Nc2ccc(C)cc2)n1	inactive
Cc1ccc(N2NC3(CCN(C(N)=O)CC3)NC2=O)cc1	inconclusive: 35.5 µM [inhibitor, single point]
O=C(CNC(=O)c1ccco1)Nc1ccc(Cl)cc1	inconclusive: 35.5 µM [activator, partial curve, poor fit]

More results.

Compound	Potency
Nc1ncccc1OCc1ccc(Cl)c(Cl)c1	inconclusive: 15.8 µM [inhibitor, single point]
CCC/C(C)=C/c1ccc(CC)cn1	inactive
CCCN(CC(=O)Nc1ccccc1C)C(=O)CCNC(=O)c1ccccc1Cl	inactive
O=C(CNC(=O)c1ccco1)Nc1ccc(F)c(Cl)c1	inactive
CC(C)Oc1cc(-n2c(=S)[nH]c3ccccc3c2=O)c(Cl)cc1Cl	inconclusive: 35.5 µM [inhibitor, single point]
CC(C)(C)c1ccc(/C=C2\SC(=O)N(CCNC(=O)c3cccc(S(=O)(=O)N4CCOCC4)c3)C2=O)cc1	inconclusive: 35.5 µM [inhibitor, single point]
O=c1c2ccccc2ncn1CCCOc1ccccc1[N+](=O)[O-]	inactive
C=CCNC(=S)N/N=C(\C)c1cccc(OC)c1	inconclusive: 10 µM [inhibitor, partial curve, poor fit]
O=C(CSc1cn(CCNC(=O)c2cccc(C(F)(F)F)c2)c2ccccc12)Nc1ccc2c(c1)OCCO2	inconclusive: 3.98 µM [inhibitor, single point]
COc1ccc(C(=O)Nc2ccc3nc(SCC(=O)N(C)c4ccccc4)sc3c2)cc1	inconclusive: 35.5 µM [inhibitor, single point]
C=CCn1c(CNC(=O)c2cccs2)n[nH]c1=S	inconclusive: 1.26 µM [inhibitor, single point]
CC(=O)N1CC(=O)N=C1SCC(=O)Nc1nc(-c2ccccc2)c(-c2ccccc2)s1	inconclusive: 16.4 µM [inhibitor, partial curve, poor fit]
CCCCC1=NN(C(=O)c2cocc2C)C(O)(C(F)(F)F)C1 (centres undefined)	inconclusive: 11.6 µM [activator, partial curve, poor fit]
O=C(O)c1cccc(-c2ccc(/C=N/Nc3nn[nH]n3)o2)c1	inactive
COc1ccc(NC(=O)c2cnn(-c3ccccc3)c2C)c(OC)c1	inactive
O=C(Nc1nc2ccc(F)cc2s1)c1nc(S(=O)(=O)Cc2ccccc2F)ncc1Cl	inconclusive: 35.5 µM [inhibitor, single point]
Cc1ccc(Sc2nc(C)c([N+](=O)[O-])c(C)c2C#N)cc1	inactive
CCCC(=O)N(c1ccc2oc(=O)sc2c1)S(=O)(=O)c1cccs1	inconclusive: 20 µM [inhibitor, single point]
CN1C(=O)/C(=C/c2ccccc2Cl)Sc2ccc(C(=O)NCc3cccnc3)cc21	inconclusive: 20 µM [inhibitor, single point]
C#CCSc1nnc(-c2sc(-c3ccccc3)nc2C)n1C	inactive
Cc1cc(NS(=O)(=O)c2ccc(NC(=O)Cc3ccc([N+](=O)[O-])cc3)cc2)nc(C)n1	inactive
CCc1ccc(NC(=O)CSc2nc3ccccc3c(=O)n2CCCC(=O)NCCCN2CCOCC2)cc1	inconclusive: 15.8 µM [inhibitor, partial curve, poor fit]
